Measured values: patent CN101605906A
Results are given in words; binding and its absence hold for the method and conditions named. Some entries that bind do so weakly or less than the wild type. Sequences can lack the tags named with a protein.

Experiments:
[1] = target: T1, 重组的带myc标签的CD70 (human) (UniProt P32970); assay: ELISA, legend of Fig. 16 (antibodies named in paragraph 887)
T1 sequence: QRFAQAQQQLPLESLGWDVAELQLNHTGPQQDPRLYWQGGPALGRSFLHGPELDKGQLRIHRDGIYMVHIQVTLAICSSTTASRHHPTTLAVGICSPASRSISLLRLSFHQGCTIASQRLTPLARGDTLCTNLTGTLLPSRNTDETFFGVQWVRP

[2] = target: T1, 重组的带myc标签的CD70 (human); assay: ELISA, myc-tagged CD70 coated on plate, antibody from 1 ug/ml in 1:2 dilutions

B1: 抗-CD70人类单克隆抗体10B4 (antibody, V domains shown)
VH: QIQLVESGGGVVQPGRSLRLSCAASGFTFGYYAMHWVRQAPGKGLEWVAVISYDGSIKYYADSVKGRFTISRDNSKNTLYLQMNSLRAEDTAVYYCAREGPYSNYLDYWGQGTLVTVSS
VL: AIQLTQSPSSLSASVGDRVTITCRASQGISSALAWYQQKPGKAPKFLIYDASSLESGVPSRFSGSGSGTDFTLTISSLQPEDFATYYCQQFNSYPFTFGPGTKVDIK
In the case of B1, the binding [1] is reported as “binds” and the binding [2] is reported as “binds”.

B2: 抗-CD70人类单克隆抗体8B5 (antibody, V domains shown)
VH: QVQLVESGGGVVQPGRSLRLSCATSGFTFSDYGMHWVRQAPGKGLEWVAVIWYDGSNKYYADSVKGRFTISRDNSKKTLSLQMNSLRAEDTAVYYCARDSIMVRGDYWGQGTLVTVSS
VL: DIQMTQSPSSLSASVGDRVTITCRASQGISSWLAWYQQKPEKAPKSLIYAASSLQSGVPSRFSGSGSGTDFTLTISSLQPEDFATYYCQQYNSYPLTFGGGTKVEIK
For B2, the binding [1] was “binds” and the binding [2] was “binds”.
